Experimental data as given in the supplement of paper PMC8728848.
The other results are listed elsewhere or left out.

Legend:
Experiment in all cases: glycan array binding signal (z-score within array); higher = stronger binding
Conditions in all cases: glycan notation: IUPAC condensed, linker removed
[1] = biological target: Neu5Ac(a2-3)Gal(b1-3)GlcNAc6S
Outline: (§1)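 Glycan array data came from 3228 arrays in the Consortium for Functional Glycomics database, and only arrays with an available protein sequence were kept. Glycan names were put into IUPAC-condensed notation, and columns mapping to the same glycan were averaged. The binding signal is a within-array Z-score, averaged across arrays of one protein sequence run at different concentrations or buffers and across linkers. A negative Z-score can be read as non-binding.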

[2] = biological target: Neu5Ac(a2-3)Gal(b1-3)[Fuc(a1-4)]GlcNAc
Outline: as §1

[3] = biological target: Neu5Ac(a2-3)Gal(b1-3)[Fuc(a1-4)]GlcNAc(b1-3)Gal(b1-3)[Fuc(a1-4)]GlcNAc
Outline: as §1

[4] = biological target: Neu5Ac(a2-3)Gal(b1-3)[Fuc(a1-4)]GlcNAc(b1-3)Gal(b1-4)[Fuc(a1-3)]GlcNAc
Outline: as §1

[5] = biological target: Neu5Ac(a2-3)Gal(b1-3)[GlcNAc(b1-6)]GalNAc
Outline: as §1

[6] = biological target: Neu5Ac(a2-3)Gal(b1-3)[Neu5Ac(a2-6)]GalNAc
Outline: as §1

[7] = biological target: Neu5Ac(a2-3)Gal(b1-3)[Neu5Ac(a2-6)]GlcNAc(b1-3)[Fuc(a1-3)[Gal(b1-4)]GlcNAc(b1-6)]Gal(b1-4)Glc
Outline: as §1

[8] = biological target: Neu5Ac(a2-3)Gal(b1-3)]Neu5Ac(a2-3)Gal(b1-4)]GlcNAc
Outline: as §1

Neu5Ac(a2-3)Gal(b1-4)Glc = biological target: Neu5Ac(a2-3)Gal(b1-4)Glc
Outline: as §1

[9] = biological target: Neu5Ac(a2-3)Gal(b1-4)GlcNAc
Outline: as §1

[10] = biological target: Neu5Ac(a2-3)Gal(b1-4)GlcNAc(b1-2)Man
Outline: as §1

[11] = biological target: Neu5Ac(a2-3)Gal(b1-4)GlcNAc(b1-2)Man(a1-3)[GlcNAc(b1-4)][Neu5Ac(a2-3)Gal(b1-4)GlcNAc(b1-2)Man(a1-6)]Man(b1-4)GlcNAc(b1-4)GlcNAc
Outline: as §1

[12] = biological target: Neu5Ac(a2-3)Gal(b1-4)GlcNAc(b1-2)Man(a1-3)[Neu5Ac(a2-3)Gal(b1-4)GlcNAc(b1-2)Man(a1-6)]Man(b1-4)GlcNAc(b1-4)GlcNAc
Outline: as §1

[13] = biological target: Neu5Ac(a2-3)Gal(b1-4)GlcNAc(b1-2)Man(a1-3)[Neu5Ac(a2-3)Gal(b1-4)GlcNAc(b1-2)Man(a1-6)]Man(b1-4)GlcNAc(b1-4)[Fuc(a1-6)]GlcNAc
Outline: as §1

[14] = biological target: Neu5Ac(a2-3)Gal(b1-4)GlcNAc(b1-2)Man(a1-3)[Neu5Ac(a2-6)Gal(b1-4)GlcNAc(b1-2)Man(a1-6)]Man(b1-4)GlcNAc(b1-4)GlcNAc
Outline: as §1

[15] = biological target: Neu5Ac(a2-3)Gal(b1-4)GlcNAc(b1-2)[Neu5Ac(a2-3)Gal(b1-4)GlcNAc(b1-4)]Man(a1-3)[GlcNAc(b1-4)][Neu5Ac(a2-3)Gal(b1-4)GlcNAc(b1-2)[Neu5Ac(a2-3)Gal(b1-4)GlcNAc(b1-6)]Man(a1-6)]Man(b1-4)GlcNAc(b1-4)GlcNAc
Outline: as §1

[16] = biological target: Neu5Ac(a2-3)Gal(b1-4)GlcNAc(b1-2)[Neu5Ac(a2-3)Gal(b1-4)GlcNAc(b1-4)]Man(a1-3)[GlcNAc(b1-4)][Neu5Ac(a2-3)Gal(b1-4)GlcNAc(b1-4)Man(a1-6)]Man(b1-4)GlcNAc(b1-4)GlcNAc
Outline: as §1

[17] = biological target: Neu5Ac(a2-3)Gal(b1-4)GlcNAc(b1-2)[Neu5Ac(a2-3)Gal(b1-4)GlcNAc(b1-6)]Man(a1-6)[Neu5Ac(a2-3)Gal(b1-4)GlcNAc(b1-2)Man(a1-3)][GlcNAc(b1-4)]Man(b1-4)GlcNAc(b1-4)GlcNAc
Outline: as §1

[18] = biological target: Neu5Ac(a2-3)Gal(b1-4)GlcNAc(b1-3)Gal
Outline: as §1

[19] = biological target: Neu5Ac(a2-3)Gal(b1-4)GlcNAc(b1-3)Gal(b1-3)GlcNAc
Outline: as §1

[20] = biological target: Neu5Ac(a2-3)Gal(b1-4)GlcNAc(b1-3)Gal(b1-4)GlcNAc
Outline: as §1

[21] = biological target: Neu5Ac(a2-3)Gal(b1-4)GlcNAc(b1-3)Gal(b1-4)GlcNAc(b1-2)Man(a1-3)[Neu5Ac(a2-3)Gal(b1-4)GlcNAc(b1-3)Gal(b1-4)GlcNAc(b1-2)Man(a1-6)]Man(b1-4)GlcNAc(b1-4)GlcNAc
Outline: as §1

[22] = biological target: Neu5Ac(a2-3)Gal(b1-4)GlcNAc(b1-3)Gal(b1-4)GlcNAc(b1-3)Gal(b1-4)GlcNAc
Outline: as §1

[23] = biological target: Neu5Ac(a2-3)Gal(b1-4)GlcNAc(b1-3)Gal(b1-4)GlcNAc(b1-3)Gal(b1-4)GlcNAc(b1-2)Man(a1-3)[Neu5Ac(a2-3)Gal(b1-4)GlcNAc(b1-3)Gal(b1-4)GlcNAc(b1-3)Gal(b1-4)GlcNAc(b1-2)Man(a1-6)]GalNAc
Outline: as §1

[24] = biological target: Neu5Ac(a2-3)Gal(b1-4)GlcNAc(b1-3)Gal(b1-4)GlcNAc(b1-3)GalNAc
Outline: as §1

[25] = biological target: Neu5Ac(a2-3)Gal(b1-4)GlcNAc(b1-3)Gal(b1-4)GlcNAc(b1-3)[Neu5Ac(a2-3)Gal(b1-4)GlcNAc(b1-3)Gal(b1-4)GlcNAc(b1-6)]GalNAc
Outline: as §1

[26] = biological target: Neu5Ac(a2-3)Gal(b1-4)GlcNAc(b1-3)Gal(b1-4)GlcNAc(b1-6)[Gal(b1-3)]GalNAc
Outline: as §1

[27] = biological target: Neu5Ac(a2-3)Gal(b1-4)GlcNAc(b1-3)Gal(b1-4)[Fuc(a1-3)]GlcNAc
Outline: as §1

[28] = biological target: Neu5Ac(a2-3)Gal(b1-4)GlcNAc(b1-3)GalNAc
Outline: as §1

[29] = biological target: Neu5Ac(a2-3)Gal(b1-4)GlcNAc(b1-3)[Neu5Ac(a2-3)Gal(b1-4)GlcNAc(b1-6)]GalNAc
Outline: as §1

[30] = biological target: Neu5Ac(a2-3)Gal(b1-4)GlcNAc(b1-6)GalNAc
Outline: as §1

[31] = biological target: Neu5Ac(a2-3)Gal(b1-4)GlcNAc(b1-6)[Gal(b1-3)]GalNAc
Outline: as §1

[32] = biological target: Neu5Ac(a2-3)Gal(b1-4)GlcNAc(b1-6)[Neu5Ac(a2-3)Gal(b1-3)]GalNAc
Outline: as §1

[33] = biological target: Neu5Ac(a2-3)Gal(b1-4)GlcNAc6S
Outline: as §1

[34] = biological target: Neu5Ac(a2-3)Gal(b1-4)[Fuc(a1-3)]GlcNAc
Outline: as §1

[35] = biological target: Neu5Ac(a2-3)Gal(b1-4)[Fuc(a1-3)]GlcNAc(b1-2)Man
Outline: as §1

[36] = biological target: Neu5Ac(a2-3)Gal(b1-4)[Fuc(a1-3)]GlcNAc(b1-3)Gal
Outline: as §1

[37] = biological target: Neu5Ac(a2-3)Gal(b1-4)[Fuc(a1-3)]GlcNAc(b1-3)Gal(b1-4)GlcNAc
Outline: as §1

[38] = biological target: Neu5Ac(a2-3)Gal(b1-4)[Fuc(a1-3)]GlcNAc(b1-3)Gal(b1-4)[Fuc(a1-3)]GlcNAc(b1-3)Gal(b1-4)[Fuc(a1-3)]GlcNAc
Outline: as §1

[39] = biological target: Neu5Ac(a2-3)Gal(b1-4)[Fuc(a1-3)]GlcNAc(b1-3)GalNAc
Outline: as §1

[40] = biological target: Neu5Ac(a2-3)Gal(b1-4)[Fuc(a1-3)]GlcNAc(b1-6)[Gal(b1-3)]GalNAc
Outline: as §1

[41] = biological target: Neu5Ac(a2-3)Gal(b1-4)[Fuc(a1-3)]GlcNAc(b1-6)[Neu5Ac(a2-3)Gal(b1-3)]GalNAc
Outline: as §1

[42] = biological target: Neu5Ac(a2-3)Gal(b1-4)[Fuc(a1-3)]GlcNAc6S
Outline: as §1

[43] = biological target: Neu5Ac(a2-3)Gal6S(b1-4)GlcNAc
Outline: as §1

[44] = biological target: Neu5Ac(a2-3)Gal6S(b1-4)[Fuc(a1-3)]GlcNAc
Outline: as §1

B1: Awp3 (Candida glabrata), B4UN32 (protein)
chain: MISFVTLLAILGLLSISWADQTVRSVAGDQRVTDPVIVGDNSILDYYGGSNYDFSNNFEIGRGTLYIGKESYFSSFQSAPTDVPNSFHLLIKNTNNLQNNGQFIIENIKRHANQCSNSSIQVFPINFQNDGEFEIISGGVEGRCCLPTSVIAPQNFLNNGKFYYKVLTDTGSIYSGSCMQNVDIGASTTTTVNNNLWEFTGSINAQINGAVSGAAQINLDGSNMFVNANTFSGQVVNLINGGSFLQTSDPLSNIVVINGLGTSDTGVTSIAVKGKGKSFTYNPSSGIVKLTTVEGKTYAYQIGCGYNTKKFITNNDSGASYESADNFFVLTYSEPYSPQTCQLENSSIFSSNFISTSTSSSSSSSSASSLPSSMSSSLPSSLSSSLSSSLSSSMSSSMSSLFIIPPPYTTTRSSGSSIIDTEIVSFYSTTDSPGHTITGTTTTTLYGPHTHSSVSTPSSSSESSTTSNSSIESSSLPHTSVSSTPESSITPSSNTISSSPTSDFSSVQSSSIMESSSVVASSSVINSSSIVDSSSSSASSLPSSMSSSLSSSMSSSLPSSMSSSLSSSLSSSLSSSMSSSMSSLFIIPPPYTTTRSSGSSIIDTEIVSFYSTTDSPGHTITGTTTTTLYGPHTHSSVSTPSSSSESSTTSNSSIESSSLPHTSVSSTPESSITPSSNTISSSPTSDFSSVQSSSIMESSSVVASSSVINSSSIVDSSSSSASSLPSSMPSSLPSSMSSSLSSSMSSSLSSSLSSSLSSSMSSSMSSLFIIPPPYTTTRSSGSSIIDTEIVSFYSTTDSPGHTITGTTTTTLYGPHTHSSVSTPSSSSESSTTSNSSIESSSLPHTSVSSTPESSITPSSNTISSSPTSDFSSVQSSSIMESSSVVASSSATQSSSVINSSSIVDSSSSSASSLPSSMPSSLPSSLSSSLSSSLSSSMSSSMSSLFIIPPPYTTTRSSGSSIIDTEIVSFYSTTDSPGHTITGTTTTTLYESSIYSSSSSTIQESELSNTSRTTMTSNSSVSISSTSSRSSFSNTKSSTIVISQSASLPDSKTDIILSTSSNIGYSSRSLLSDLGTSISDSDIHHSVLHSTESYSSNESGTNPFTSIASLSNFIPESSSHTSTALGSENSVISSDILTTMSHPVATNSGDKPTTPKRSEQVSTTMTSSGPTPDTSSFDTDGMSAYSRPEFTTNSLEVNKSSTSQLGNNKQTFSNLQLESTRPHSENEVDNNTRLLQSIQQSSTYGTNNVNPLSPTGSISIPLTEDGQGDNNNWNSPATNDLCTQISFNLTATTITVTDRITITDSIHDISSEVITSYIYQTIVDQKTVTQTVDGKSLANKMSSIPKPSSRSLIQPQPPVAIELQEGAASTSRVSLVSLFISIILVLL
glycan array binding signal (z-score) [1]: -0.349
glycan array binding signal (z-score) [2]: -0.755
glycan array binding signal (z-score) [3]: -0.552
glycan array binding signal (z-score) [4]: -0.215
glycan array binding signal (z-score) [5]: 0.897
glycan array binding signal (z-score) [6]: -0.258
glycan array binding signal (z-score) [7]: 0.9
glycan array binding signal (z-score) [8]: -1.42
glycan array binding signal (z-score) (Neu5Ac(a2-3)Gal(b1-4)Glc): -0.47
glycan array binding signal (z-score) [9]: -0.509
glycan array binding signal (z-score) [10]: -0.323
glycan array binding signal (z-score) [11]: 1.78
glycan array binding signal (z-score) [12]: -0.92
glycan array binding signal (z-score) [13]: 0.013
glycan array binding signal (z-score) [14]: 1.05
glycan array binding signal (z-score) [15]: -0.445
glycan array binding signal (z-score) [16]: 1.88
glycan array binding signal (z-score) [17]: 2.13
glycan array binding signal (z-score) [18]: -0.194
glycan array binding signal (z-score) [19]: -0.606
glycan array binding signal (z-score) [20]: 0.144
glycan array binding signal (z-score) [21]: -1.07
glycan array binding signal (z-score) [22]: 1.98
glycan array binding signal (z-score) [23]: 0.664
glycan array binding signal (z-score) [24]: 1.14
glycan array binding signal (z-score) [25]: -0.242
glycan array binding signal (z-score) [26]: -0.947
glycan array binding signal (z-score) [27]: -0.784
glycan array binding signal (z-score) [28]: -0.902
glycan array binding signal (z-score) [29]: -0.74
glycan array binding signal (z-score) [30]: 0.391
glycan array binding signal (z-score) [31]: 0.093
glycan array binding signal (z-score) [32]: -2.35
glycan array binding signal (z-score) [33]: -0.344
glycan array binding signal (z-score) [34]: 0.544
glycan array binding signal (z-score) [35]: -1.08
glycan array binding signal (z-score) [36]: 1.41
glycan array binding signal (z-score) [37]: 0.339
glycan array binding signal (z-score) [38]: -1.43
glycan array binding signal (z-score) [39]: 0.228
glycan array binding signal (z-score) [40]: 1.22
glycan array binding signal (z-score) [41]: -1.17
glycan array binding signal (z-score) [42]: 0.176
glycan array binding signal (z-score) [43]: -0.773
glycan array binding signal (z-score) [44]: -0.355
